Data as given in PubChem BioAssay AID1224830 (NIAID, 2016)

- Test: 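Genes whose knock-down alters the TNF-alpha reporter response to LPS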 (primary screen)
- System: human THP-1 monocytic leukaemia cells, TNF dual-luciferase reporter clone, PMA-differentiated to macrophage-like cells
- Knock-down reagent: siRNA pool against human genes, 50 nM
- Time to read-out: LPS for 4 h, given about 3 days after siRNA transfection
- Challenge: bacterial LPS (TLR4 ligand), 10 ng/ml
- Detection: 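TNF firefly reporter luminescence divided by renilla, normalised to the plate median, then turned into a robust z-score for each replicate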
- Direction: TNF reporter robust z-score: higher = stronger TNF reporter response to LPS
- Hit rule: 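Each well counts as active if its z-score is over 2.8 or under -1.5; controls are left without a call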
The deposit covers about 18,000 reagents; shown is a part drawn at random. About 2,900 of them (16%) count as active. 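Calls are made per well; low scores hint the gene aids the LPS response, high scores that it dampens it.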 A number with no mark means an inactive call. Repeated entries: four replicate wells of each siRNA pool. Reagent sequences are not shown.

UTP18 scored TNF reporter robust z-score -0.83. For UTP18 the deposit lists TNF reporter robust z-score -0.57. Against UTP18 the deposit lists TNF reporter robust z-score -0.99. For UTP18 the deposit lists TNF reporter robust z-score -0.41. For FRMPD1 the deposit lists TNF reporter robust z-score 0.07. Depletion of FRMPD1 resulted in: TNF reporter robust z-score -0.66.

For FRMPD1, the values are TNF reporter robust z-score -0.43. FRMPD1 scored TNF reporter robust z-score 0.01. Against JMJD1C the deposit lists TNF reporter robust z-score 2.87 (active). For JMJD1C the deposit lists TNF reporter robust z-score 2.98 (active). For JMJD1C, the entry reads TNF reporter robust z-score 0.39. JMJD1C gave TNF reporter robust z-score 1.99.

For MARCHF6, the entry reads TNF reporter robust z-score -0.98. MARCHF6 showed TNF reporter robust z-score 0.02. After knock-down of MARCHF6 the results were TNF reporter robust z-score -0.04. MARCHF6 showed TNF reporter robust z-score 2.21. Silencing of DEUP1 resulted in: TNF reporter robust z-score -0.12. DEUP1 showed TNF reporter robust z-score 0.26.

For DEUP1, the entry reads TNF reporter robust z-score 0.1. With knock-down of DEUP1 the results were TNF reporter robust z-score -0.35.

Part of the list above, set out differently.
{"gene knocked down":"JMJD1C","TNF reporter robust z-score":"2.98 (active)"}
{"gene knocked down":"JMJD1C","TNF reporter robust z-score":0.39}
{"gene knocked down":"JMJD1C","TNF reporter robust z-score":1.99}
{"gene knocked down":"MARCHF6","TNF reporter robust z-score":-0.98}

Additional reagents follow.
HHAT scored TNF reporter robust z-score -1.05. Silencing of HHAT gave: TNF reporter robust z-score 0.01. With knock-down of HHAT the results were TNF reporter robust z-score -0.09. With knock-down of HHAT, the record shows TNF reporter robust z-score 0.34. Depletion of DUSP22 resulted in: TNF reporter robust z-score 0.08. DUSP22 scored TNF reporter robust z-score 0.46.

Against DUSP22, the entry reads TNF reporter robust z-score -0.6. DUSP22 scored TNF reporter robust z-score -0.68. KRTAP5-7 scored TNF reporter robust z-score -0.26. With knock-down of KRTAP5-7, the screen gave TNF reporter robust z-score -1.06. KRTAP5-7 showed TNF reporter robust z-score -0.9. KRTAP5-7 showed TNF reporter robust z-score -0.33.

Knock-down of AGMAT gave: TNF reporter robust z-score 0.3. For AGMAT, the values are TNF reporter robust z-score -0.74. Knock-down of AGMAT resulted in: TNF reporter robust z-score 0.57. Depletion of AGMAT resulted in: TNF reporter robust z-score 1.27. TREML2 showed TNF reporter robust z-score -0.19. TREML2 scored TNF reporter robust z-score 0.75.

After knock-down of TREML2 the results were TNF reporter robust z-score 0.15. Knock-down of TREML2 gave: TNF reporter robust z-score 0.35. With knock-down of CA4 the results were TNF reporter robust z-score -1.44. CA4 gave TNF reporter robust z-score -1.2. Against CA4, the values are TNF reporter robust z-score -1.34. Against CA4, the entry reads TNF reporter robust z-score -1.52 (active).

With knock-down of BPIFB3 the results were TNF reporter robust z-score -1.05. For BPIFB3, the values are TNF reporter robust z-score -0.83. BPIFB3 scored TNF reporter robust z-score -0.93. Against BPIFB3 the deposit lists TNF reporter robust z-score -0.77. For IAH1, the entry reads TNF reporter robust z-score 17 (active). After knock-down of IAH1 the results were TNF reporter robust z-score 15.5 (active).

For IAH1, the values are TNF reporter robust z-score 15.4 (active). After knock-down of IAH1 the results were TNF reporter robust z-score 12.9 (active). SLC2A6 gave TNF reporter robust z-score -0.61. SLC2A6 showed TNF reporter robust z-score -0.34. With knock-down of SLC2A6 the results were TNF reporter robust z-score -0.43. Depletion of SLC2A6 resulted in: TNF reporter robust z-score -0.23.

For TPRG1, the values are TNF reporter robust z-score -0.83. Against TPRG1, the entry reads TNF reporter robust z-score -0.59. Knock-down of TPRG1 gave: TNF reporter robust z-score -0.66. TPRG1 showed TNF reporter robust z-score -0.65.
